{"sequences": {"note": "By UniProt entry, the sequences of proteins in these tests, tags left out. Residues count along the entry.", "UniProt P05923": "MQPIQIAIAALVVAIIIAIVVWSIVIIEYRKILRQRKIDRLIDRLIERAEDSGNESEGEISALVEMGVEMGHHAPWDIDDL", "UniProt Q9Y6D5": "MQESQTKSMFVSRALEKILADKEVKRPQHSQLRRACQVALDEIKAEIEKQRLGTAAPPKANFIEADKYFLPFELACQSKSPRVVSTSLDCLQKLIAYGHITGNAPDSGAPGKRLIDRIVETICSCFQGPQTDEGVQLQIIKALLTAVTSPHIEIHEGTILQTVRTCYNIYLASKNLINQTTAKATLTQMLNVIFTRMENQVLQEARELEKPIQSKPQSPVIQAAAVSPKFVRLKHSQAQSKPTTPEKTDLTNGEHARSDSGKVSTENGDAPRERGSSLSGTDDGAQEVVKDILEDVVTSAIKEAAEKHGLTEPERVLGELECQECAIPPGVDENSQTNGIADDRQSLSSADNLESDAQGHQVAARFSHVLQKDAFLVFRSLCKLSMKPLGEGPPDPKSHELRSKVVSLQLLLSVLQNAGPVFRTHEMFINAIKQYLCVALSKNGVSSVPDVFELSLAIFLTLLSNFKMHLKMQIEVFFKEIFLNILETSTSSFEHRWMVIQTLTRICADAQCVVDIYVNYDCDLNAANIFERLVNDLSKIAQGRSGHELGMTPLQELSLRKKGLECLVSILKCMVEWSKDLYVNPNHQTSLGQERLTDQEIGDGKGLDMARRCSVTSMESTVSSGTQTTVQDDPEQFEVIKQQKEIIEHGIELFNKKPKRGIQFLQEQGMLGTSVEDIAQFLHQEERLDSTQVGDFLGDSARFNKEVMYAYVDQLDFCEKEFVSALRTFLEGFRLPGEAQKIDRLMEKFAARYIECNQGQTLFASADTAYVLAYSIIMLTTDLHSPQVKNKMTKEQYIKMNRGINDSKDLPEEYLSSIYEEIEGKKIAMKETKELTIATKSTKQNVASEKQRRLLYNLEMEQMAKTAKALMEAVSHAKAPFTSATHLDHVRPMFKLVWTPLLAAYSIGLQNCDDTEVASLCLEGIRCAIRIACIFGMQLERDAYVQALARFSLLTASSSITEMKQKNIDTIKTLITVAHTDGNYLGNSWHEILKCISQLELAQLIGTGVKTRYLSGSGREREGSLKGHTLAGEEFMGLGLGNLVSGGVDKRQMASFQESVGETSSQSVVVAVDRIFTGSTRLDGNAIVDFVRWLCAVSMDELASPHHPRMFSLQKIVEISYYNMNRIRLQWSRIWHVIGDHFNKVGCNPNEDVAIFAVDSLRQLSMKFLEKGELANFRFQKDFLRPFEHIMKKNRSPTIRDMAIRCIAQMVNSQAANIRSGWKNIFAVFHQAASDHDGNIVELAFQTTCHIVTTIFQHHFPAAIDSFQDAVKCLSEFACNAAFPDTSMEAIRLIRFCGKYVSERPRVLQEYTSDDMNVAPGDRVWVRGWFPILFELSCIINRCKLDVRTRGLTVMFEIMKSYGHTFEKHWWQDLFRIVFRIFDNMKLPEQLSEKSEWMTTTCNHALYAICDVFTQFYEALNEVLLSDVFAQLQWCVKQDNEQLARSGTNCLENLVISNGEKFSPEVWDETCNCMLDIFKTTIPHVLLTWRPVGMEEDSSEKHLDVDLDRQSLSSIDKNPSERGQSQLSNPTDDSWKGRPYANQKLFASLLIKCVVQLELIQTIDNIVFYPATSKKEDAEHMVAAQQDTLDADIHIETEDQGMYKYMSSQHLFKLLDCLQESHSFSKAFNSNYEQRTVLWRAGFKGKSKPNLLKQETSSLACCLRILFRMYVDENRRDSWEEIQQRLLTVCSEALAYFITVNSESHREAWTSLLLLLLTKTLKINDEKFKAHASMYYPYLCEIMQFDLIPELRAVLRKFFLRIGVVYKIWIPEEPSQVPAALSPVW", "UniProt Q10589, residues 1-161": "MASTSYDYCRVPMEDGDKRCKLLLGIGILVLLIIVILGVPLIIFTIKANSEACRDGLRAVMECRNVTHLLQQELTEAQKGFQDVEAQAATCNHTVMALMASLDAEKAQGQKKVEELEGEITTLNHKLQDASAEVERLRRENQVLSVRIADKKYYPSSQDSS", "UniProt O14981": "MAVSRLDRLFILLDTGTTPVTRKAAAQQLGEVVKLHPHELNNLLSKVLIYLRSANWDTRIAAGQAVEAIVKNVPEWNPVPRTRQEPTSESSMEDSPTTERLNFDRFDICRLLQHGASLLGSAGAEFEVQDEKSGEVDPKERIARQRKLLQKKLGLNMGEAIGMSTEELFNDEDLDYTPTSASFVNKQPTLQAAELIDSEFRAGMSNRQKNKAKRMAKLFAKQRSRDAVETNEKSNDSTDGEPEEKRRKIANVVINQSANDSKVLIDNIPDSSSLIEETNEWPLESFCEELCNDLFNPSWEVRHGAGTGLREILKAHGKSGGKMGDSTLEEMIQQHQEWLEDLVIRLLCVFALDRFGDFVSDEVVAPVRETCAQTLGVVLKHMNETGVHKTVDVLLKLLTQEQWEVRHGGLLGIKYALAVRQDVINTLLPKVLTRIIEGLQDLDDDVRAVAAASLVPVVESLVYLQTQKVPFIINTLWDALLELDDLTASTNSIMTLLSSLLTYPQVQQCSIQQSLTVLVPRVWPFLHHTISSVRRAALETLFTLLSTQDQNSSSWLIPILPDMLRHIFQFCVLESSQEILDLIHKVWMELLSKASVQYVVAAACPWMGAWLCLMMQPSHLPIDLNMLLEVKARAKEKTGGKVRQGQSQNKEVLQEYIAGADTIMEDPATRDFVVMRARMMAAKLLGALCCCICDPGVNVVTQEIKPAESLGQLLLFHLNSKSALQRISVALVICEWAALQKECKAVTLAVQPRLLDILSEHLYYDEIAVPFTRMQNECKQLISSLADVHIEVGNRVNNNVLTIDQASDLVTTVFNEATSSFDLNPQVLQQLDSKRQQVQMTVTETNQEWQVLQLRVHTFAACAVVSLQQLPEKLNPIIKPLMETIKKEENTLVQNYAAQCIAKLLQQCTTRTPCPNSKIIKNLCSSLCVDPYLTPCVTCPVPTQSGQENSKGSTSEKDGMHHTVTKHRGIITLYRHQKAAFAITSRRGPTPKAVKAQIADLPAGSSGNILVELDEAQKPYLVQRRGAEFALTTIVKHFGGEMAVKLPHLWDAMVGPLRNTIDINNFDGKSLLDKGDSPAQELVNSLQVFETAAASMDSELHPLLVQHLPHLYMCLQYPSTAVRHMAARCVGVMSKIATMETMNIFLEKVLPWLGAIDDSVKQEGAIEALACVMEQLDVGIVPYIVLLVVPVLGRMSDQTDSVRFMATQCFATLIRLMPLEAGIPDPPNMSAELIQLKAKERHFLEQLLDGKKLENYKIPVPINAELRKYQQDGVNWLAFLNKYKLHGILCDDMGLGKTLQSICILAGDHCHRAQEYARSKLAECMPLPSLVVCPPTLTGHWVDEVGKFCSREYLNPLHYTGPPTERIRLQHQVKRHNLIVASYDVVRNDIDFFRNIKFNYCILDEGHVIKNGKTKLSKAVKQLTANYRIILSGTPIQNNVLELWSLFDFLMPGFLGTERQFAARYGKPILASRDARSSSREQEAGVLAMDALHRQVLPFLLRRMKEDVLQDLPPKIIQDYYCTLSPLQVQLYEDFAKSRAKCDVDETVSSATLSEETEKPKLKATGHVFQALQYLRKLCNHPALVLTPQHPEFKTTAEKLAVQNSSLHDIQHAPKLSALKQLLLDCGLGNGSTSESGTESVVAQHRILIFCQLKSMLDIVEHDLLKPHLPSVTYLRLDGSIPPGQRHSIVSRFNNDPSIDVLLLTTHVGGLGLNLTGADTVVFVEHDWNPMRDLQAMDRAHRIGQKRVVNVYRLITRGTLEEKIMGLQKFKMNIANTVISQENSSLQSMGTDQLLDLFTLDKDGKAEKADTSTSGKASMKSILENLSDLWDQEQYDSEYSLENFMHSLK", "UniProt Q9Y297": "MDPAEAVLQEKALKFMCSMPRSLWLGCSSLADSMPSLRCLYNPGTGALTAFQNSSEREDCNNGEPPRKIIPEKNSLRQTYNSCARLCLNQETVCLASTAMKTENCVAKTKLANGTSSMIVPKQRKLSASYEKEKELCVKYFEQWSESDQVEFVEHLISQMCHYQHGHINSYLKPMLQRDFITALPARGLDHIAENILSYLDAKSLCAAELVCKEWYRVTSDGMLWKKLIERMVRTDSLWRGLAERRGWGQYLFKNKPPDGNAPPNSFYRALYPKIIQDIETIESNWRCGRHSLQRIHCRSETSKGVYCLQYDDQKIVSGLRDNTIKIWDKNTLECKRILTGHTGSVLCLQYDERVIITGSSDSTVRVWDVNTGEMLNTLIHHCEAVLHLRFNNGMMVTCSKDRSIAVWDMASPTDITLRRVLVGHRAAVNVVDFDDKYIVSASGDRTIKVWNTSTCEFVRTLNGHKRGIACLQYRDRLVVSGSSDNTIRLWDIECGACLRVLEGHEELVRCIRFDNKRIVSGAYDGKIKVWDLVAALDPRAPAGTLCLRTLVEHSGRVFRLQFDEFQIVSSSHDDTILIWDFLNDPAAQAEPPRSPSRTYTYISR", "UniProt Q9UKB1": "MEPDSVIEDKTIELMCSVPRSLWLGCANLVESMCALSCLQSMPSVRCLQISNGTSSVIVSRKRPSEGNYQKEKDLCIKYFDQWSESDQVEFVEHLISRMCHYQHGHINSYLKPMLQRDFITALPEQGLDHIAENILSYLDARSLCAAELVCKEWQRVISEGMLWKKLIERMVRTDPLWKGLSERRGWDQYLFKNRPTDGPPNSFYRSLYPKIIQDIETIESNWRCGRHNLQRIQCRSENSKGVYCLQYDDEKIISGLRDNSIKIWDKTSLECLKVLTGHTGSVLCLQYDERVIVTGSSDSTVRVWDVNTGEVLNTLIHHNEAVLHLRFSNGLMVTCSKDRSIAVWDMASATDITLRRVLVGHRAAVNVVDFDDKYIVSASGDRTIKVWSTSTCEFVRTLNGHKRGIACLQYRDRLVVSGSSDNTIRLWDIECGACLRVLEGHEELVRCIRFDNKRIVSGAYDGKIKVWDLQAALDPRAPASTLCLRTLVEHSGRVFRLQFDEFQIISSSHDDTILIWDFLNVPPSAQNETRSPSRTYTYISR", "UniProt P98175": "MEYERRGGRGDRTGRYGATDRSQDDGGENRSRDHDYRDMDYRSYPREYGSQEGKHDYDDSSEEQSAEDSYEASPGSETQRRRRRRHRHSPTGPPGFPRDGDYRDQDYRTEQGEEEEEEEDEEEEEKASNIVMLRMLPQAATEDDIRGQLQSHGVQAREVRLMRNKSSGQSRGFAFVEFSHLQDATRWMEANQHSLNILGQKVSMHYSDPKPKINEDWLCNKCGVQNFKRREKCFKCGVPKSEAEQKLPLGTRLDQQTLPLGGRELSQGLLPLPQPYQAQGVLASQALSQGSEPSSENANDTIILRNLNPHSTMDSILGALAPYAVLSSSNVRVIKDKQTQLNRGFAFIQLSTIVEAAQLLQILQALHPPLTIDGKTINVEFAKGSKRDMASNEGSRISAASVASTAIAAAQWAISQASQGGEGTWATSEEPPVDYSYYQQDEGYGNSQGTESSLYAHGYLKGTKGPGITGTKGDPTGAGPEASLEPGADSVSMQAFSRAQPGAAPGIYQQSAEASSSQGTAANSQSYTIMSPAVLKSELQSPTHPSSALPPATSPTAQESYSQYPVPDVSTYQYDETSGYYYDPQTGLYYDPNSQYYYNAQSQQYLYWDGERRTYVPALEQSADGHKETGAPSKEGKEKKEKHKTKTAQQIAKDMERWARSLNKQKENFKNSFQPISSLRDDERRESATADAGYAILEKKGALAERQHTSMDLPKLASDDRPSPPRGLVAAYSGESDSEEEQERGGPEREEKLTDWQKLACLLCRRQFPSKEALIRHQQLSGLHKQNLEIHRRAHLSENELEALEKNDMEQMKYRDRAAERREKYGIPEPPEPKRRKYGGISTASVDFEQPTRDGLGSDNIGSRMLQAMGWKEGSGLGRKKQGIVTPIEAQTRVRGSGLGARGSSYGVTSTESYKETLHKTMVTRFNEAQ"}, "source": "paper PMC12363165", "key": {"[1]": {"molecular_target": "Vpu-V5-APEX2 (HIV-1 viral protein U fused to a V5-APEX2 tag) (HIV-1) (UniProt P05923)", "experiment": "proximity labelling; APEX2 labelling in HeLa cells transfected with Vpu-APEX2 (control APEX2-NES); biotinyl tyramide 30 min, 1 mM H2O2 1 min; streptavidin beads, on-bead digestion, label-free quantitative mass spectrometry; hits Log2FC > 2, P < 0.05"}, "[2]": {"molecular_target": "Vpu-V5-APEX2 (HIV-1 viral protein U fused to a V5-APEX2 tag) (HIV-1) (UniProt P05923)", "experiment": "affinity purification with mass spectrometry; HeLa cells transfected with Vpu-APEX2 or APEX2-NES, 48 h; Pierce IP lysis buffer; anti-V5 magnetic beads 2 h at 4 C; washes 50 mM Tris-HCl pH 7.5, 150 mM NaCl, 0.05% NP-40; gel, trypsin, mass spectrometry; hits Log2FC > 2, score > 3"}}, "note": "No constants are given. Whether binding was seen depends on the method and setting. Binding seen in cells or lysates may run through a third protein. Here binding means that the protein was enriched with, or labelled near, the bait; the list need not be complete."}
{"substance": "ARFGEF2, endogenous (from UniProt Q9Y6D5 1-1785)", "values": [{"measurement": "binding", "setting": "[1]", "value": "binds"}, {"measurement": "binding", "setting": "[2]", "value": "binds"}]}
{"substance": "BST-2, endogenous (from UniProt Q10589 1-161)", "values": [{"measurement": "binding", "setting": "[2]", "value": "binds"}]}
{"substance": "BTAF1, endogenous (from UniProt O14981 1-1849)", "values": [{"measurement": "binding", "setting": "[1]", "value": "binds"}, {"measurement": "binding", "setting": "[2]", "value": "binds"}]}
{"substance": "BTRC, endogenous (from UniProt Q9Y297 1-605)", "values": [{"measurement": "binding", "setting": "[1]", "value": "binds"}, {"measurement": "binding", "setting": "[2]", "value": "binds"}]}
{"substance": "FBXW11, endogenous (from UniProt Q9UKB1 1-542)", "values": [{"measurement": "binding", "setting": "[1]", "value": "binds"}, {"measurement": "binding", "setting": "[2]", "value": "binds"}]}
{"substance": "RNA-binding motif protein 10 (RBM10), endogenous (from UniProt P98175 1-930)", "values": [{"measurement": "binding", "setting": "[1]", "value": "binds"}, {"measurement": "binding", "setting": "[2]", "value": "binds"}]}
